pEC50: −log10 of the molar value.
What was measured:
Assay in all cases: cells
[1] = tested on: SH-SY5Y; conditions: Homo sapiens, 48 h
[2] = tested on: HBL-100; conditions: Homo sapiens, HBL-100, 48 h
[3] = tested on: U2OS; conditions: Homo sapiens, 48 h
[4] = tested on: TERT-RPE1; conditions: Homo sapiens, RPE-1, 48 h
[5] = tested on: HCT-116; conditions: Homo sapiens, HCT-116, 48 h

CCCNc1ccc2ncc(-c3ccc4[nH]ncc4c3)n2n1
pEC50 [1]: < 4.30
pEC50 [2]: 4.59
pEC50 [3]: 6.05
pEC50 [4]: 5.85
pEC50 [5]: 5.66

Reference: ChEMBL document CHEMBL5550090, “Synthesis and biological evaluation of 1H-pyrrolo[3,2-g]isoquinolines” (Bioorg Med Chem, 2024)
